We go through two sequences from paper PMC12665065.

Chains of the proteins cited; added tags and fusions are not shown. A line that says so, or that is headed by a name, gives the form on record, which may keep a tag or linker.
GST-GmHDA7 (Glycine max), one chain, as listed by the source: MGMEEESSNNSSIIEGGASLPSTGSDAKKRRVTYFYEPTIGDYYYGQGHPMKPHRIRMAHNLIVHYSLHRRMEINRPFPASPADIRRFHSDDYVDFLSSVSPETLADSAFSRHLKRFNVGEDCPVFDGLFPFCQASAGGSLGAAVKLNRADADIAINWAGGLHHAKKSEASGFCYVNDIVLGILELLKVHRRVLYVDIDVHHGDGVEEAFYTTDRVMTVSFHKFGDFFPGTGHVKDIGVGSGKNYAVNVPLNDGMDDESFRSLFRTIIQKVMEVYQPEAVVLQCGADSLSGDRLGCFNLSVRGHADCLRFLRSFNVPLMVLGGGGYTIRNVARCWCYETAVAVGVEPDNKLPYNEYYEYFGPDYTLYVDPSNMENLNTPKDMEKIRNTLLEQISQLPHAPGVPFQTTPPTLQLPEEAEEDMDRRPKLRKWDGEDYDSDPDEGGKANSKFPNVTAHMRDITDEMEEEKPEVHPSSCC

Holding throughout (test): EMSA
A general note: Mobility shift assays separate free from complexed probe on a gel.

The subject of one data set is GST-GmHDA7 (Glycine max). The following applies: alone, also no supershift with MBP-GmRVE5 without GmHE13; LightShift EMSA kit binding buffer (composition not stated), 2 ug MBP-GmOBP3, 10 min then 20 min with probe at room temperature, 7% PAGE; pull-down 30 min at RT; recombinant protein; protein details: GST; label: biotin.
The subject of the next data set is MBP-GmRVE5 (Glycine max). Particulars: LightShift EMSA kit binding buffer (composition not stated), 2 ug MBP-GmOBP3, 10 min then 20 min with probe at room temperature, 7% PAGE; pull-down 30 min at …; recombinant protein; protein details: MBP; label: biotin.
The subject of data set [1] is MBP-GmRVE5 + His-GmHE13Sin3 + GST-GmHDA7. Particulars: supershift of the GmRVE5-DNA complex; LightShift EMSA kit binding buffer (composition not stated), 2 ug MBP-GmOBP3, 10 min then 20 min with probe at room temperature, 7% PAGE; pull-down 30 min at RT; recombinant protein; protein details: MBP,His,GST; label: biotin.

Construct, isoform or probe ends are uncertain for at least one entry. For part of these data: A negative result means that nothing was seen under these conditions.

As to “AAGTAAAATATCTTAAAGTAAAATATCTTA (double strand) [GmEXLB1-1 EE probe]”, the binding result is recorded as “no binding” in the data set with GST-GmHDA7 (Glycine max), “binds” with MBP-GmRVE5 (Glycine max) and “binds” in data set [1].
On to “AGTACAAATATCTATAGTACAAATATCTAT (double strand) [GmEXLB1-2 EE probe]”, for which the binding result with GST-GmHDA7 (Glycine max) is “no binding”; with MBP-GmRVE5 (Glycine max), “binds”; in data set [1], “binds”.
